No constants are given. Whether binding was seen depends on the method and setting. Some binding calls cover weakened binding; strength is not graded here. Each block holds one binder with its values, some of them ahead of it.
What was measured:
[1] = target: recombinant human KLB (soluble protein) (human) (UniProt Q86Z14); test: biolayer interferometry (Octet), anti-human Fc sensor -> human Ab1 -> hKLB protein -> mouse Ab2
[2] = target: recombinant human KLB (soluble protein) (human) (UniProt Q86Z14); test: biolayer interferometry, Octet Red384, sandwich epitope binning; test antibody
[3] = target: recombinant human KLB (soluble protein) (human) (UniProt Q86Z14); test: biolayer interferometry, Octet Red384, sandwich epitope binning; reference antibody

Sequences of proteins named here, by UniProt entry; tags and fusion partners are left off. Residues count along the entry.
UniProt Q86Z14, residues 53-997: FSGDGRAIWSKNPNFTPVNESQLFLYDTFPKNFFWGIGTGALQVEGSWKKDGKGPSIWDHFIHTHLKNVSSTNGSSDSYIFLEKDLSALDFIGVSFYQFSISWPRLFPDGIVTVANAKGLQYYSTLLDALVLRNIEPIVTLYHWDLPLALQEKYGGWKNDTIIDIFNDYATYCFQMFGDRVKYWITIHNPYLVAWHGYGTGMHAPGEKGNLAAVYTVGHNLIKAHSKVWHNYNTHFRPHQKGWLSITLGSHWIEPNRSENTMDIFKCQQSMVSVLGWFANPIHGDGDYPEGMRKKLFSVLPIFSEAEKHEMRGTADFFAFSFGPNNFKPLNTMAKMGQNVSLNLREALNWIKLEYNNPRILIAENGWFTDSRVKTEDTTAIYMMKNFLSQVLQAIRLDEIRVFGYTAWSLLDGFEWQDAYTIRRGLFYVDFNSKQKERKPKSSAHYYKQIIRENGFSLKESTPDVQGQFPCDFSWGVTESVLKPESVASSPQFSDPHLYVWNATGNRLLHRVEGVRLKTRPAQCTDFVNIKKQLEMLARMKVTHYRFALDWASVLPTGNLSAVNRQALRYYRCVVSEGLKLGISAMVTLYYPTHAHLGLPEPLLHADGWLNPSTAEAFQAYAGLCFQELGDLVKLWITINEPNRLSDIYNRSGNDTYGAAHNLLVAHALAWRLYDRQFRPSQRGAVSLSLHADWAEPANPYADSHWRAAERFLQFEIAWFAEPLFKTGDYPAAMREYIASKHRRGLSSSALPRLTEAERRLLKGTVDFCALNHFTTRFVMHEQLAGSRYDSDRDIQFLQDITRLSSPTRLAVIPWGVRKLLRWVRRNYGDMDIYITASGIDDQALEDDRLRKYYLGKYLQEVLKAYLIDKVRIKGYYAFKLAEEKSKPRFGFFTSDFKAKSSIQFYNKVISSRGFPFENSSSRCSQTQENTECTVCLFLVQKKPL

- binding [1]: binds
B1: anti-KLB monoclonal antibody 23B3 (antibody, V domains shown)
VH: EVQLQESGPGLVKPSQSLSLTCSVTGYSITSGYYWNWIRQFPGNKLEWMGYIRYDGNSNYNPFLKNRVSITRDTSKNQFFLKLNSVTTEDTATYYCTRKGAYYSSFDALDYWGQGTSVTVSS
VL: DIVMTQSPSSMYASLGERVTISCKASQDIRSYLSWFQQKPGKSPKTLIYRANRLVDGVPSRFSGSGSGQDYSLTITSLEFGDVGLYYCLQYDEFPLTFGAGTKLKIE

- binding [1]: binds
- binding [2]: binds
B2: anti-KLB monoclonal antibody 2C12 (antibody, human IgG1, V domains shown)
VH: EVQLQQSGPGLVKPSQSLSLTCSVTGYSITSGYYWTWIRQFPGNKLEWMGYIKYDGGNYYNPSLRNRISITRDTSKNHFFLKFYSVTAEDTATYFCARGDYYASPYGAMDSWGQGTSVTVSS
VL: DIVMTQSPSSLSASLGDTITITCHASQDIDVWLSWYQQKPGNVPQLLISKSSILHTGVPSRFSGGGSGTGFTLTISSLQPEDIATYYCQQGLSYPFTFGSGTKLKIK

- binding [1]: binds
- binding [3]: binds
B3: anti-KLB monoclonal antibody 28B7 (antibody, IgG1, V domains shown)
VH: EVQLQQSGPELVQPGTSVKISCEASGYTFTDYYINWVKQSRGKSLEWIGDINPNNGDTTYNQKFKAKATLTVDRSSNTAYMELRSLTSEDSVVYYCARRFYSSPFDSWGQGTTLTVSS
VL: DIVMTQSPSSLAVSVGEKVTLSCKSGQSLLYSRNQKNYLAWYQQKPGQSPKLLISWASTRESGVPDRFTGSGSGTDFTLTISSVKTEDLAVYHCQQYYSYPYTFGGGTRLEIK

— patent US20190040142A1
